Data published in patent US9766240B2, “Method of identifying a compound for treating a hypoxic or ischemic related disorder” (Dana Farber Cancer Institute, Inc., priority 2001, dated 2017).
For at least one compound, name, drawing or mass did not settle the structure.

System: pUHC 13-3 reporter plasmid (7 TETo sites) in U2OS cells
Assay: TETr-fusion transcriptional luciferase reporter gene assay
Type: cell-based, human
Settings: doxycycline 2 μg/ml for 24 hours

## C[C@H]1c2cccc(O)c2C(=O)C2=C(O)[C@]3(O)C(=O)C(C(N)=O)=C(O)[C@@H](N(C)C)[C@@H]3[C@@H](O)[C@@H]21 [Doxycycline, doxycycline]
  effect on the transcriptional effects of TETr-cyclin A and TETr-cyclin E: completely blocked
